This is one part of the list. How the calls were made is not given here. Repeats in this data set agree poorly, so a single value says little.
test system: Lgr5 (MarsCy1-Lgr5-EGFP, U2OS); assay: cell-surface Lgr5 expression (SCi1 fluorescence, background-subtracted) relative to WT DMSO (fold of DMSO control); higher = more Lgr5 at the plasma membrane; settings: U2OS MarsCy1-Lgr5-EGFP stable; treatment time: overnight; library: Kinase Gold; 20 µM
Description: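 U2OS cells stably expressing MarsCy1-Lgr5-EGFP in 384-well plates were incubated overnight with single-dose compounds. Cell-surface Lgr5 was stained with SCi1 and scanned at 700 nm on a LI-COR Odyssey. Intensity was background-subtracted (parental U2OS) and expressed relative to WT DMSO wells.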

cell-surface Lgr5 expression, inactive:
COc1ccc2oc(=O)c(C(=O)Nc3ccc(C)cc3)cc2c1 0.92
CC(=O)N/C(=C\c1ccccc1)C(=O)NCC1CCCO1 (stereo not given) 0.868
COc1cccc(NC2SC(=O)N(c3ccccc3)C2=O)c1 (stereo not given) 0.837
CC(=O)CSc1nc2c(c(=O)[nH]c(=O)n2C)n1Cc1ccccc1 0.953
O=C(NCCN1CCNCC1)C(=O)NCc1ccccc1 1.01
Cc1cc(C)nc(NC(=O)c2ccccc2C(=O)O)n1 0.688
N#Cc1ccc(C(=O)NNC(=O)c2ccncc2)cc1 0.875
CSc1ccc(/C=C(\C#N)c2nc3ccccc3[nH]2)cc1 0.689
O=C(O)/C(=C\c1ccncc1)NC(=O)c1ccccc1 0.987
O=C(Nc1ccc2c(c1)OCCO2)c1ccc(Cl)cc1Cl 0.82
CC1(CC(=O)NNC(=S)Nc2ccccc2)OCCO1 0.856
O=C(Nc1ccccc1)Nc1nnc(Cc2ccccc2)s1 0.81
O=C(Cc1cccs1)NNC(=S)NC(=O)c1cccnc1 0.694
Clc1ccc(OCc2cn3ccccc3n2)c2ncccc12 0.846
O=C(NNC(=S)NC(=O)c1cccnc1)c1ccccc1 0.645
Cc1ccc(C(=O)Nc2ncc([N+](=O)[O-])s2)cc1C 0.705
Cc1cn2c3c(=O)[nH]c(=O)n(C)c3nc2n1-c1ccccc1 0.931
O=C(Nc1ccc2c(c1)OCCO2)c1ccc(Cl)cc1 1.05
CCCn1c(=O)c(C(=O)NNC(C)=O)c(O)c2ccccc21 0.663
O=C(/C=C/c1ccccc1)NCCc1c[nH]c2ccccc12 0.857
Cc1ccc(-n2c(SCC(N)=O)nnc2-c2ccncc2)cc1 0.913
Cc1c(NC(=O)c2ccncc2)c(=O)n(-c2ccccc2)n1C 0.716
COc1ccc(OC)c(N/C(C)=C/C(=O)c2ccncc2)c1 0.611
CCC(=O)NNC(=O)c1c(O)c2ccccc2n(C)c1=O 0.722
C/C(=C\C(=O)c1cccnc1)NNC(=O)c1ccc(C)cc1 0.713
O=C(/C=C/c1ccco1)c1ccc(NC(=O)c2cccs2)cc1 0.958
COc1cc(OC)cc(C(=O)NNC(=O)c2ccco2)c1 0.837
O=C(NCc1ccncc1)C(=O)NCc1cccnc1 0.742
O=C(Nc1cc2cc[nH]c2cn1)c1ccccc1 0.789
CCC(=O)NNC(=O)c1c(O)c2ccccc2n(CC)c1=O 0.803
NC(=O)Cn1c2[n+](c3ccccc31)CC(O)CS2 (stereo not given) 0.891
CCn1c(=O)c(C(=O)NNC(C)=O)c(O)c2ccccc21 0.699
CC(C)(C)NC(=O)C(=O)NNC(=O)c1ccco1 0.557
Nc1ccc2nc(-c3cccc(O)c3)[nH]c2c1 0.863
Cc1ccc(Cc2ccc(C(=O)NNC(N)=S)o2)cc1 0.958
CCn1c(=O)c(C(=O)Nc2cccc(F)c2)c(O)c2ccccc21 0.886
Cc1nn(-c2ccccc2)c2sc(C(=O)NN)cc12 0.548
CC(=O)Nc1c(C(=O)O)[nH]c2ccccc12 0.894
O=C(/C=C/c1ccco1)Nc1c[nH]c(=O)[nH]c1=O 0.867
O=c1oc2ccccc2c(Nc2ccccc2O)c1[N+](=O)[O-] 0.719

Three compounds from above, ordered by molar mass, high to low.
cell-surface Lgr5 expression, inactive:
Cc1cn2c3c(=O)[nH]c(=O)n(C)c3nc2n1-c1ccccc1 0.931
CC(=O)N/C(=C\c1ccccc1)C(=O)NCC1CCCO1 (stereo not given) 0.868
Cc1nn(-c2ccccc2)c2sc(C(=O)NN)cc12 0.548
